Source: the supplement of paper PMC10338343
± gives the standard deviation. Only a part is listed here, and it is no random draw. Many of these values have a large error.
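Also: 1 nM active piRISC with 0.1 nM target library at 33 °C single turnover.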

These sequences were tested on MILI (PIWIL2) piRISC loaded with piRNA #1 (26 nt) (assay: pre-steady-state target cleavage rate (min^-1); MIWI and MILI are mouse PIWI proteins and EfPiwi is from a freshwater sponge; tags in brackets are library labels; higher = faster piRNA-guided slicing of the target). Conditions: guide: piRNA #1 5'p-UGAGGUAGUAGGUUGUAUAGUAUCCA; auxiliary factor: 500 nM mouse GTSF1.
Method in brief: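 Three pooled Cleave-'n-Seq trials supplied the data, with k3 capped at 0.0001 min^-1. In each, […] transcribed, DNA-blocked target RNA library and 1 nM active affinity-purified piRISC with one synthetic guide reacted in HEPES–potassium acetate buffer at 33 °C for 0–8 or 0–960 min, with or without 500 nM GTSF1 partner protein. Uncleaved targets were sequenced and normalised to depth and to weakly complementary targets. A burst-and-steady-state fit provided the pre-steady-state cleavage rate.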
For GGAGAGGAAACUAUACAACCAACUACCUCA, the “pre-steady-state target cleavage rate” value was 0.00297 ± 0.0071. For GGAGACCUAUGAUAUGUUCCUACUACGAGA, the “pre-steady-state target cleavage rate” value was 0.000319 ± 0.013. In the case of GGAGACCUAUGAUAUGUACCUACUUGCUCA, the “pre-steady-state target cleavage rate” value is reported as < 0.0001. GGAGACCUAUGAUAUGUUCCUACUAGCUCA was tested, and the “pre-steady-state target cleavage rate” value was < 0.0001. For GGAGACCUAUGAUUACAACCUACUAGCACA, the “pre-steady-state target cleavage rate” value was 0.0011 ± 0.0055. In the case of GGAGACCAUACUAUACUACCUACUACCACA, the “pre-steady-state target cleavage rate” value is reported as 0.217 ± 0.021. For “GGAGACCUAUGAAUACAAGGAUGAUGGAGA [g13:g18:cont:t1A]”, the “pre-steady-state target cleavage rate” value was 0.000178 ± 0.027. With GGAGACCUAUGAUAUCAAACCUACUACCUCA the “pre-steady-state target cleavage rate” value was 0.00119 ± 0.0042. GGAGACCAUACUAUACAACCUUACUACCUCA was tested, and the “pre-steady-state target cleavage rate” value was 0.00244 ± 0.0035. With GGAGACCAUUCUAUACAUCCUACUACCUCA the “pre-steady-state target cleavage rate” value was 0.235 ± 0.019. With GGAGACCAUACUAUACAACCUUCUAGCUCA the “pre-steady-state target cleavage rate” value was 0.00217 ± 0.0047. In the case of GGAGACCUAUCUAUACAACCUAGUACGUCA, the “pre-steady-state target cleavage rate” value is reported as 0.00368 ± 0.0037. “GGAGACCUAUGAUAUGAACCUACUACCUCC [g2:g14:cont:t1C]” was tested, and the “pre-steady-state target cleavage rate” value was 0.000368 ± 0.0082. With GGAGACCAUACUAUUCAUCCUACUACCUCA the “pre-steady-state target cleavage rate” value was 0.271 ± 0.019. In the case of GGAGAGGAUACUAUACAACCAACAACCUCA, the “pre-steady-state target cleavage rate” value is reported as 0.00205 ± 0.0022. With GGAGACCUAUCAUAUACAACCUACUACCUCA the “pre-steady-state target cleavage rate” value was 0.0423 ± 0.0085. In the case of GGAGACCUAUGAUAUGAAGCUACUACCACA, the “pre-steady-state target cleavage rate” value is reported as 0.00019 ± 0.013. For GGAGACCUAUCUAUACAACCUUCAACCUCA, the “pre-steady-state target cleavage rate” value was 0.00235 ± 0.0036. GGAGUGGAUACUAUACAACCUACAAGCUCA was tested, and the “pre-steady-state target cleavage rate” value was 0.00149 ± 0.0027. For “GGAGACCUAUGUAUACAACCUACUACCUCG [g2:g19:cont:t1G]”, the “pre-steady-state target cleavage rate” value was 0.0649 ± 0.0098. In the case of GGAGACCUAUGAUAUGAACGUACUACGUCA, the “pre-steady-state target cleavage rate” value is reported as 0.0005 ± 0.01. With GGAGACGAUACUAUACAACCUAGAACCUCA the “pre-steady-state target cleavage rate” value was 0.0145 ± 0.0064. In the case of “GGAGACCUAUGAUAACAACCUAGAUGGAGA [g9:g16:cont:t1A]”, the “pre-steady-state target cleavage rate” value is reported as 0.000143 ± 0.021.
